Laboratory results as given in patent US7488834B2, “Organic semiconductors” (Alcatel-Lucent USA Inc., priority 2005, dated 2009).

Legend:
[1] = FET charge carrier mobility, Si/SiO2/PTTP composition/Au, saturation regime (Examples 1, 2)
[2] = FET on PEN foil, vapor deposited semiconductor, PVA dielectric (Example 5); details: Example 5: vapor deposited, gold source/drain, PVA about 2 μ, carbon paint gate
[3] = FET on PEN foil, spin coated semiconductor, PVA dielectric, linear regime (Examples 3-4)
[4] = drop casting, Si/SiO2/PTTP composition/Au
[5] = Example 2, sublimed at 70° C. onto silicon dioxide, gold electrodes
[6] = Example 3 additional FET: gold source/drain, 3% w/w in THF, PVA about 3.5 μ, annealed 150° C. 15 minutes
[7] = Example 4: 0.5% w/w in THF with 1% by weight polystyrene, laser-patterned electrodes, PVA about 3,500 nm

Compound: CCC(CC)COc1ccc(-c2ccc(-c3ccc(-c4ccc(OCC(CC)CC)cc4)s3)s2)cc1 [4(2Et)-O-PTTP-O-4(2Et), 5,5′-bis(4-(2-ethylbutyloxy)phenyl)-2,2′-bithiophene]
- mobility μ [1, 4]: 10^−6-5×10^−5 cm^2/Vs

Compound: CC(C)CCCC(C)CCOc1ccc(-c2ccc(-c3ccc(-c4ccc(OCCC(C)CCCC(C)C)cc4)s3)s2)cc1 (centres unmarked) [8(3,7Me)-O-PTTP-O-8(3,7Me), 5,5′-bis(4-(3,7-dimethyloctyloxy)phenyl)-2,2′-bithiophene]
- mobility μ [1, 4]: 6×10^−6-5×10^−5 cm^2/Vs

Compound: CCCOCCc1ccc(-c2ccc(-c3ccc(-c4ccc(CCOCCC)cc4)s3)s2)cc1 [3O2PTTP2O3, 5,5′-Bis(4-(propxyethyl)phenyl)-2,2′-bithiophene]
- mobility of the FET [2]: 3×10^−3 cm^2/Vs
- on/off ratio [2]: 27.1

Compound: CCCCCC(C)Cc1ccc(-c2ccc(-c3ccc(-c4ccc(CC(C)CCCCC)cc4)s3)s2)cc1 (centres unmarked) [7(2Me)-PTTP-7(2Me), 5,5′-bis(4-(2-methylheptyl)phenyl)-2,2′-bithiophene, reference compound]
- mobility μ [1, 5]: 4×10^−4 cm^2/Vs

Compound: CCCCC(CC)COc1ccc(-c2ccc(-c3ccc(-c4ccc(OCC(CC)CCCC)cc4)s3)s2)cc1 (centres unmarked) [6(2Et)-O-PTTP-O-6(2Et), 5,5′-bis(4-(2-ethylhexyloxy)phenyl)-2,2′-bithiophene]
- mobility μ [1, 4]: 5×10^−8-7×10^−7 cm^2/Vs

Compound: CCCCCC(C)Oc1ccc(-c2ccc(-c3ccc(-c4ccc(OC(C)CCCCC)cc4)s3)s2)cc1 (centres unmarked) [6(1Me)-O-PTTP-O-6(1Me), 5,5′bis(4-(1-methylhexyloxy)phenyl)-2,2′-bithiophene]
- mobility μ [1, 5]: 1×10^−3 cm^2/Vs
- mobility of the FET ([3]; Example 3: PEDOT source/drain, 5% w/w solution in THF, PVA about 1.4 μ): 1×10^−3 cm^2/Vs
- on/off ratio ([3]; Example 3: PEDOT source/drain, 5% w/w solution in THF, PVA about 1.4 μ, from output characteristic): 190
- mobility of the FET [3, 6]: 4.8×10^−3 cm^2/Vs
- on/off ratio [3, 6]: 6
- mobility of the FET [3, 7]: 7×10^−3 cm^2/Vs
- on/off ratio [3, 7]: 20

Compound: CCCCCC(CC)Oc1ccc(-c2ccc(-c3ccc(-c4ccc(OC(CC)CCCCC)cc4)s3)s2)cc1 (centres unmarked) [6(1Et)-O-PTTP-O-6(1Et), 5,5′-Bis-[4-(1-ethyl-hexyloxy)-phenyl]-[2,2′]bithiophenyl]
- mobility μ ([1]; sublimed films at 70° C., Si/SiO2/PTTP composition/Au): 4.4×10^−7 cm^2/Vs
